Consider three substances from paper PMC9535751.

By UniProt entry, the sequences of proteins in these tests, tags left out.
UniProt O75533: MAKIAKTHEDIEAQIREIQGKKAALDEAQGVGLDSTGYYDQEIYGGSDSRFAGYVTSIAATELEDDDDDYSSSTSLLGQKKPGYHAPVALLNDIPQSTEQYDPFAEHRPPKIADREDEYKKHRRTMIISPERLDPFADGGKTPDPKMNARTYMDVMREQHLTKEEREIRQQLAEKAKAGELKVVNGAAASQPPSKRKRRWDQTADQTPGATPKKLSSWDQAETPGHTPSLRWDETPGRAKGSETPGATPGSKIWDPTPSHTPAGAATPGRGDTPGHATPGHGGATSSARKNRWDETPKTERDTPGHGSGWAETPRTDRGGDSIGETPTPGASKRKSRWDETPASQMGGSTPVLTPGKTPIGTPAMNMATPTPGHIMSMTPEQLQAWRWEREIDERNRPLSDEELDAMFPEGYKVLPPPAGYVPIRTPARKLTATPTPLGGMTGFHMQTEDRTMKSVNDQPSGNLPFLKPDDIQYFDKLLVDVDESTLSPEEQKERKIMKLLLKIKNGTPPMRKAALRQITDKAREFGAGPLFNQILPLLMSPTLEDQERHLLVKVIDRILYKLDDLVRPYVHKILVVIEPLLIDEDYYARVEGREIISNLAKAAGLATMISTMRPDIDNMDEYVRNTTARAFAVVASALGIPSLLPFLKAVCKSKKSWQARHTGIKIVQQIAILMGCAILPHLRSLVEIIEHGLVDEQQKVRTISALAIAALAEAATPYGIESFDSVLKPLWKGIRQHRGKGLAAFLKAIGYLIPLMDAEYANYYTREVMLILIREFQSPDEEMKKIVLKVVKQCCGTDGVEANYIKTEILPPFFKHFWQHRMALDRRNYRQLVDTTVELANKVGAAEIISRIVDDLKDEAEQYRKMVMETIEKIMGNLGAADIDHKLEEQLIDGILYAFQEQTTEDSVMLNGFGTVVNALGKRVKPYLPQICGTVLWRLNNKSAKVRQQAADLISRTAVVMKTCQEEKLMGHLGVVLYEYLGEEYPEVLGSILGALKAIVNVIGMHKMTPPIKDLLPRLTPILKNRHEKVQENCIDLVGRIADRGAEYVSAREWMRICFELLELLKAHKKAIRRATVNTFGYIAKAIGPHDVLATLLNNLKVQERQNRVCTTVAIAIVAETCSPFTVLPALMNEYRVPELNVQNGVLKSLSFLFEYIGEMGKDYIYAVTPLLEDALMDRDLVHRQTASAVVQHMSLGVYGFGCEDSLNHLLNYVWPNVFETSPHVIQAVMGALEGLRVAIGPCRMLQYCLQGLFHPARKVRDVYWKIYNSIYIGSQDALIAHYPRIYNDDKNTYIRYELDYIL
UniProt Q13435: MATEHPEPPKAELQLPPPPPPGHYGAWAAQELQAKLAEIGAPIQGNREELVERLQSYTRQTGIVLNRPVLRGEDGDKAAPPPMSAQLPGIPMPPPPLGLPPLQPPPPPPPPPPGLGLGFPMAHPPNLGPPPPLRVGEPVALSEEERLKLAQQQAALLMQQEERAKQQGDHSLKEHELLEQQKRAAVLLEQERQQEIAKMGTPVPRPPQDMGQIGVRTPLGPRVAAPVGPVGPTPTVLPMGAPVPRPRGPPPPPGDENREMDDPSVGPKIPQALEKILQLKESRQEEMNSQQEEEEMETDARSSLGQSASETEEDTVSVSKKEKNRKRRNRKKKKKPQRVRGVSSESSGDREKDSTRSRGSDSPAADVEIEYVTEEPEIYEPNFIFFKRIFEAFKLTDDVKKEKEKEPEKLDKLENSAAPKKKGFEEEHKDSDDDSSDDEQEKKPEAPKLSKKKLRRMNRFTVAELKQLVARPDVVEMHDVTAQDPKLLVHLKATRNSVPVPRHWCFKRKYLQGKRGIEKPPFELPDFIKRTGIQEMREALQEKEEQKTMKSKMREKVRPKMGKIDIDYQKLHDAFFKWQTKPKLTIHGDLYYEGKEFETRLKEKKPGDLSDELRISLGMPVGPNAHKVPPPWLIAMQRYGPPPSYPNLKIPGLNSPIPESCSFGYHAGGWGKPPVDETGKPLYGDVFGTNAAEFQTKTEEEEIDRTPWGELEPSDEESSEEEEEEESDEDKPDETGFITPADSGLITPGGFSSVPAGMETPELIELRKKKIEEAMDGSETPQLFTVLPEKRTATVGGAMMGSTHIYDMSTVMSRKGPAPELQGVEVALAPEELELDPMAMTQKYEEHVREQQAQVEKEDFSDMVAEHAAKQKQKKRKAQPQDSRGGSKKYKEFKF
UniProt Q15393: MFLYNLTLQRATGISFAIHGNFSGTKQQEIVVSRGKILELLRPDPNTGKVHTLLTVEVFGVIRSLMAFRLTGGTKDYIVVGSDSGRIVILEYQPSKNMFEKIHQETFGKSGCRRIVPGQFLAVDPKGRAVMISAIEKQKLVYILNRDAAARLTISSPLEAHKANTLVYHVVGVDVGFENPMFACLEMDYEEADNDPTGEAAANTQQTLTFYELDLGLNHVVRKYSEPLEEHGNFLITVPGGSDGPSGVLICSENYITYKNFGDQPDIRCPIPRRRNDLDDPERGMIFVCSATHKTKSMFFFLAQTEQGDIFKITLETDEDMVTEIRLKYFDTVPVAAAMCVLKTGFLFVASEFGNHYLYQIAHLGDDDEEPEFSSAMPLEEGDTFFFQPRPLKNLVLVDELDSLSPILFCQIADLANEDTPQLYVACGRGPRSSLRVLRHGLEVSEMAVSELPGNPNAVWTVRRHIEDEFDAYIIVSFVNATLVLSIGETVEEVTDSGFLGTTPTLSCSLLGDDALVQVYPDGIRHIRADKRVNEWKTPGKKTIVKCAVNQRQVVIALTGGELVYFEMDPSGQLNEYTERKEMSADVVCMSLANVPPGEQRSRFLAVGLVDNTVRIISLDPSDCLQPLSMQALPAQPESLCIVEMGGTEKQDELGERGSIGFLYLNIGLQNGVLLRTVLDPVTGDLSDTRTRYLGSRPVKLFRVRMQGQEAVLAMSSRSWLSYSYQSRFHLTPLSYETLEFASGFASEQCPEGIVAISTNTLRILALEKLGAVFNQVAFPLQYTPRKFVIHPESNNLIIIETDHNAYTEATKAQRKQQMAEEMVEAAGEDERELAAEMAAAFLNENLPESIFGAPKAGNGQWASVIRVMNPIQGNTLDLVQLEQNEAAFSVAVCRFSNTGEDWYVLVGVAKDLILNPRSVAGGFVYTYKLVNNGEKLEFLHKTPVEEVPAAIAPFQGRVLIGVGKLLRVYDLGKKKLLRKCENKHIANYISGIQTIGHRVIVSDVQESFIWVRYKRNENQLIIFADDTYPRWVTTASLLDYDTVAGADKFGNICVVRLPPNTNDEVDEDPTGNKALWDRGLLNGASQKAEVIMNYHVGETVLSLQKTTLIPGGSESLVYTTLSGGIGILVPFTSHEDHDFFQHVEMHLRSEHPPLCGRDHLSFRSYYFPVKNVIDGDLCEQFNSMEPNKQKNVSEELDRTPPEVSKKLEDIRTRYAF

Results are given in words; binding and its absence hold for the method and conditions named. Binding seen in cells or lysates may run through a third protein. Some binding calls cover weakened binding; strength is not graded here.

Assay [1] concerns the target T1, CPSF2 (human (endogenous in HEK293 and HeLa)) (UniProt Q9P2I0).
T1 sequence: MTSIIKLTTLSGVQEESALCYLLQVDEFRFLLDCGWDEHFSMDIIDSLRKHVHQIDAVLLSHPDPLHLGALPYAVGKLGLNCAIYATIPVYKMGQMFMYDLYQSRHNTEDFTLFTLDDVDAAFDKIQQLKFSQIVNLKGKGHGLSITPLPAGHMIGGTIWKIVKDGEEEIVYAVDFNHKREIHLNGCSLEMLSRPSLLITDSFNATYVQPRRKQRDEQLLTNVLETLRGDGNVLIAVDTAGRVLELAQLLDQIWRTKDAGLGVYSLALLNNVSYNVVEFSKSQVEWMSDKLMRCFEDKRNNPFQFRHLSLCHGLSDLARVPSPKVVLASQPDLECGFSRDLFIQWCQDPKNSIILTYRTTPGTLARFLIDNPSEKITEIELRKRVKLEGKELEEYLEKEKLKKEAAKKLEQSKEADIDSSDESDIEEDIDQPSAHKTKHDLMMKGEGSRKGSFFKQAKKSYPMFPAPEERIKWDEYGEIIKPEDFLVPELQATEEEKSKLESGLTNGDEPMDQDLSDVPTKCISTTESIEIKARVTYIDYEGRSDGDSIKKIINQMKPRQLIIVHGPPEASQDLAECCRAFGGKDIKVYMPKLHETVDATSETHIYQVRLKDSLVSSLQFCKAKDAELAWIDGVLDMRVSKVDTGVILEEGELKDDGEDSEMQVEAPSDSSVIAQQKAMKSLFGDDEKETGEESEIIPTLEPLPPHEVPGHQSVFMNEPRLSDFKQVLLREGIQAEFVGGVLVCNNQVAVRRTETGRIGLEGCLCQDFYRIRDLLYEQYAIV
The experiment in a line: co-IP; CPSF2 antibody on Dynabeads, lysate of CDK9as HEK293 cells treated 30 min with DMSO or NA (1-NA-PP1); lysis with 1% NP-40, 150 mM NaCl, Benzonase; Western blot.

Assay [2] has as its target SF3B1 (human (endogenous in HEK293 and HeLa)) (UniProt O75533). The experiment in a line: co-IP; SF3B1 antibody on Dynabeads, lysate of CDK9as HEK293 cells treated 30 min with DMSO, NA or DRB; lysis with 1% NP-40, 150 mM NaCl, Benzonase; Western blot. (In general: In western blotting, separated proteins are transferred to a membrane and probed.)

In the case of SF3B1 (from UniProt O75533 1-1304), the binding result in assay [1] is reported as “binds”. Consider SF3B2 (from UniProt Q13435 1-895), for which the binding entry in assay [2] is “binds”. For SF3B3 (from UniProt Q15393 1-1217), the binding entry in assay [1] is “binds”.
